Our source for the binding values is paper PMC11574751 (ACS Chemical Biology, 2024).

Results are given in words; binding and its absence hold for the method and conditions named. Some entries that bind do so weakly or less than the wild type.

The target in this experiment is T1, ABCG2 (breast cancer resistance protein) (human), Q9UNQ0.
T1 chain: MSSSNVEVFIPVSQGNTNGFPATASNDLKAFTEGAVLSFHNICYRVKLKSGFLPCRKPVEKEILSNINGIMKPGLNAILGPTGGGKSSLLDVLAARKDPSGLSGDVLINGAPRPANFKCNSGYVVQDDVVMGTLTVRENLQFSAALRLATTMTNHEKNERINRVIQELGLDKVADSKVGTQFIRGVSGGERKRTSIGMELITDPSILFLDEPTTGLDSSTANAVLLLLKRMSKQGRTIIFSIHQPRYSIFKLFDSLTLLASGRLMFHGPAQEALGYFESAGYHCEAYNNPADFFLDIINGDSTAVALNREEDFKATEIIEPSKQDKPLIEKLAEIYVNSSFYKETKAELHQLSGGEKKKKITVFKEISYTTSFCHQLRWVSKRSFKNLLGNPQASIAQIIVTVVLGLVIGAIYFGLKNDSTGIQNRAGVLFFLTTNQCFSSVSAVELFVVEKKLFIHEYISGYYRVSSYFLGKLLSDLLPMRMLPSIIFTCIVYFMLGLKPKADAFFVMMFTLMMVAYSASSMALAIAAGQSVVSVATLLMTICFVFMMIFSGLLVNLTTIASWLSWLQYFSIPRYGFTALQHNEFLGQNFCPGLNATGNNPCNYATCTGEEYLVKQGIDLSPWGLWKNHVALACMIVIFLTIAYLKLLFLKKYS
Description: cryo-EM structure; nanodisc-reconstituted ABCG2 with 5D3-Fab added and two copies of an inhibitor bound (Ko143, MZ29, MZ82 or AZ99); inward-open conformation; the MZ29 structure is from a reprocessed, previously published data set; both purified. The conditions noted are these: remark: other sources report otherwise.

B1: ABCG2 (breast cancer resistance protein), Q9UNQ0 1-655 (protein)
chain: MSSSNVEVFIPVSQGNTNGFPATASNDLKAFTEGAVLSFHNICYRVKLKSGFLPCRKPVEKEILSNINGIMKPGLNAILGPTGGGKSSLLDVLAARKDPSGLSGDVLINGAPRPANFKCNSGYVVQDDVVMGTLTVRENLQFSAALRLATTMTNHEKNERINRVIQELGLDKVADSKVGTQFIRGVSGGERKRTSIGMELITDPSILFLDEPTTGLDSSTANAVLLLLKRMSKQGRTIIFSIHQPRYSIFKLFDSLTLLASGRLMFHGPAQEALGYFESAGYHCEAYNNPADFFLDIINGDSTAVALNREEDFKATEIIEPSKQDKPLIEKLAEIYVNSSFYKETKAELHQLSGGEKKKKITVFKEISYTTSFCHQLRWVSKRSFKNLLGNPQASIAQIIVTVVLGLVIGAIYFGLKNDSTGIQNRAGVLFFLTTNQCFSSVSAVELFVVEKKLFIHEYISGYYRVSSYFLGKLLSDLLPMRMLPSIIFTCIVYFMLGLKPKADAFFVMMFTLMMVAYSASSMALAIAAGQSVVSVATLLMTICFVFMMIFSGLLVNLTTIASWLSWLQYFSIPRYGFTALQHNEFLGQNFCPGLNATGNNPCNYATCTGEEYLVKQGIDLSPWGLWKNHVALACMIVIFLTIAYLKLLFLKKYS
B1: the binding entry was “binds”.
